We go through one sequence from patent US6294325.

Construct, isoform or probe ends are uncertain for at least one entry. Negatives hold for the conditions tested.

The test system of the data set is MutS + MutL. Kind of data set: activity assay. As to conditions: 3' phosphate on the 28-mer; allele-specific PCR; 1 uM MutS + 0.2 uM MutL; matched pUC19GC allele amplified (100% AvaII cleavage at equal template); purified recombinant protein.

For “GGGGACCCTC (double strand) [TaqMan 28-mer/pUC19GC perfect homoduplex]”, the “activity on this sequence” value is recorded as “not active”.
